Test results as given in US11780838B1, “Pyrrolo[3,2-b]quinoline compounds as antibacterial agents” (King Faisal University, priority 2023, dated 2023).
In brackets after ≈: the same amount, converted by molar mass.

Experiments:
Test in all cases: In vitro antibacterial activity (MIC, CLSI M07-A10 dilution)
Format in all cases: cell-based
[1] = test system: Escherichia coli MTCC 443; settings: MTCC443
[2] = test system: Bacillus subtilis MTCC 441; settings: MTCC441
[3] = test system: Enterococcus faecium ATCC 51559 (VRE resistant)
[4] = test system: Enterococcus faecium ATCC 35667; settings: ATCC35667
[5] = test system: Pseudomonas aeruginosa MTCC 741; settings: MTCC741
[6] = test system: Staphylococcus aureus ATCC BAA-1556 (MERSA resistant); settings: ATCCBAA1556
[7] = test system: Staphylococcus epidermidis
[8] = test system: Staphylococcus aureus ATCC 29213; settings: ATCC29213

## CN[C@H](CC(C)C)C(=O)N[C@H]1C(=O)N[C@@H](CC(N)=O)C(=O)N[C@H]2C(=O)N[C@H]3C(=O)N[C@H](C(=O)N[C@H](C(=O)O)c4cc(O)cc(O)c4-c4cc3ccc4O)[C@H](O)c3ccc(c(Cl)c3)Oc3cc2cc(c3O[C@@H]2O[C@H](CO)[C@@H](O)[C@H](O)[C@H]2O[C@H]2C[C@](C)(N)[C@H](O)[C@H](C)O2)Oc2ccc(cc2Cl)[C@H]1O [Vancomycin, reference compound]
[1]
  MIC: > 128 µg/mL
[2]
  MIC: 0.5 µg/mL (≈ 0.345 µM)
[3]
  MIC: > 128 µg/mL
[4]
  MIC: 0.5 µg/mL (≈ 0.345 µM)
[5]
  MIC: > 128 µg/mL
[6]
  MIC: 1 µg/mL (≈ 0.69 µM)
[7]
  MIC: 1 µg/mL (≈ 0.69 µM)
[8]
  MIC: 1 µg/mL (≈ 0.69 µM)
